Measured values from the supplement of paper PMC10849652.
The list shows a part of the results.

Chains of the proteins cited; added tags and fusions are not shown. Lines headed by an entry give the natural chain unless they say otherwise; changes in a name come on top.
UniProt O15120: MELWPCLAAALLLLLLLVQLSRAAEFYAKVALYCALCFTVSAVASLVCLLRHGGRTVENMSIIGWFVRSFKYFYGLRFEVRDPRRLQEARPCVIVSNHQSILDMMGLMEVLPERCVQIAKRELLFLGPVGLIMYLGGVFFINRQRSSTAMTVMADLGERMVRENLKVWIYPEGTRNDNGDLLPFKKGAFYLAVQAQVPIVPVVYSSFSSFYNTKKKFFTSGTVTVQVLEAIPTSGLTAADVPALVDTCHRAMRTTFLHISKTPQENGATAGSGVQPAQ
UniProt Q13444: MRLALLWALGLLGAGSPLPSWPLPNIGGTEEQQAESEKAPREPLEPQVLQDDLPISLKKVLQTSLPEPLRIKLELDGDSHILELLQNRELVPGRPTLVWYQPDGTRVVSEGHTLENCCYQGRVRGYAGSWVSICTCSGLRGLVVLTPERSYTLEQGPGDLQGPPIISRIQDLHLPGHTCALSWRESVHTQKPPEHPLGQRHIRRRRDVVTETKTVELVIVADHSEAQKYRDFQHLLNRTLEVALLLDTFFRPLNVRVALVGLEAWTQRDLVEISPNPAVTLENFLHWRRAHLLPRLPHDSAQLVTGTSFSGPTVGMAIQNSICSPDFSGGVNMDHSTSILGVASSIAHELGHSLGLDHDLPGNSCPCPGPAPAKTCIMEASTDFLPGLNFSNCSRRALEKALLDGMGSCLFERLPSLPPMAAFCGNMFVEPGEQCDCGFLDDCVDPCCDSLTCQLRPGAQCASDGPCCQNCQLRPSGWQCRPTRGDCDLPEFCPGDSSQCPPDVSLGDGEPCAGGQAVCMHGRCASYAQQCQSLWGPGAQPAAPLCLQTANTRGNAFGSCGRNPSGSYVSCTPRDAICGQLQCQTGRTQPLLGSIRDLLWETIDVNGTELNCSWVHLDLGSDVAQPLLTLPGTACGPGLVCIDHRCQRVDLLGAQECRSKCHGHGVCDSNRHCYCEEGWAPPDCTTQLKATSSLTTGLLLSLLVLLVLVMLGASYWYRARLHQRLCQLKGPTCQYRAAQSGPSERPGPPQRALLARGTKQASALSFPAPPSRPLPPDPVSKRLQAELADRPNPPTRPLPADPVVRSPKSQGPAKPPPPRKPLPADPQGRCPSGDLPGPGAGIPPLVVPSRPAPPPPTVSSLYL
UniProt Q63HM1: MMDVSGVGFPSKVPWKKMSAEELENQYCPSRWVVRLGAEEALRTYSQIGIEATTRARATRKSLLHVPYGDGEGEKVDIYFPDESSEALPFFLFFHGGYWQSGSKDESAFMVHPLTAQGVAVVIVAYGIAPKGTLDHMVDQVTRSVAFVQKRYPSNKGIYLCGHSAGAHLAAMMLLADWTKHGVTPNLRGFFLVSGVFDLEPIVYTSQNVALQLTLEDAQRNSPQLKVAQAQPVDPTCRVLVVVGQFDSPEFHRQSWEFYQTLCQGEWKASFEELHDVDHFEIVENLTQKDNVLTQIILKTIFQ
UniProt Q9NX46: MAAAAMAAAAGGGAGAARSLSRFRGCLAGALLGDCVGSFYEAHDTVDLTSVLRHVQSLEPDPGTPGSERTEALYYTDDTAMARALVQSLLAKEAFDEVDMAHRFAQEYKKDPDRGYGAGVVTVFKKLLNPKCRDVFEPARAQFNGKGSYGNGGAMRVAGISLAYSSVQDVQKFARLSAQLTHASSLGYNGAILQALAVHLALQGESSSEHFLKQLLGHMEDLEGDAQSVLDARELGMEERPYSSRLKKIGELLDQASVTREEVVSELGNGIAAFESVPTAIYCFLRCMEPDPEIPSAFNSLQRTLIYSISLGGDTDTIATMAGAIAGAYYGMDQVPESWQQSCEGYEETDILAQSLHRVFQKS
UniProt Q8NHP1: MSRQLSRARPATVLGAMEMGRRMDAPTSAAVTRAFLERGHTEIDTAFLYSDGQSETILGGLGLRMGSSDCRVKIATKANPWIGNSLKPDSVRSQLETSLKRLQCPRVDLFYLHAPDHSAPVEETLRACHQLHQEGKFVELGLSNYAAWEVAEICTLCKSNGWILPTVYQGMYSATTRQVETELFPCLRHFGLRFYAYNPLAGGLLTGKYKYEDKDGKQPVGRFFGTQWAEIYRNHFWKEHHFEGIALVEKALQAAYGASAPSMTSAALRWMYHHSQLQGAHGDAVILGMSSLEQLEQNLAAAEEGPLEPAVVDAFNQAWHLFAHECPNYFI
UniProt Q9Y6K8: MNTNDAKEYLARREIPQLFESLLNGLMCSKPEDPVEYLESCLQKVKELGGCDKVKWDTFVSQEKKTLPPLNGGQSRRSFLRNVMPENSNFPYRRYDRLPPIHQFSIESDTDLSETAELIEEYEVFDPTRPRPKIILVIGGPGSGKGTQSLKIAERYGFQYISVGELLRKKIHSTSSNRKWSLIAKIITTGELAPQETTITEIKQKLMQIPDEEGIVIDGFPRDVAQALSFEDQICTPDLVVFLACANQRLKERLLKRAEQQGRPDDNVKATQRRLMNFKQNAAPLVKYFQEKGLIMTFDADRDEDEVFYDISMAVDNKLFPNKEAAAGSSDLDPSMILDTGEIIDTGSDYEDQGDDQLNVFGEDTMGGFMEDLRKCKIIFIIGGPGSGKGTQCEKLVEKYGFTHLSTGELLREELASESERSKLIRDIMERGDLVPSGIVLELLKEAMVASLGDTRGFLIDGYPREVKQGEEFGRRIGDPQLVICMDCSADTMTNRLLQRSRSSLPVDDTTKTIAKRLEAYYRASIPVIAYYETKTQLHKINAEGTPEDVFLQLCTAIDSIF
UniProt Q8WV93: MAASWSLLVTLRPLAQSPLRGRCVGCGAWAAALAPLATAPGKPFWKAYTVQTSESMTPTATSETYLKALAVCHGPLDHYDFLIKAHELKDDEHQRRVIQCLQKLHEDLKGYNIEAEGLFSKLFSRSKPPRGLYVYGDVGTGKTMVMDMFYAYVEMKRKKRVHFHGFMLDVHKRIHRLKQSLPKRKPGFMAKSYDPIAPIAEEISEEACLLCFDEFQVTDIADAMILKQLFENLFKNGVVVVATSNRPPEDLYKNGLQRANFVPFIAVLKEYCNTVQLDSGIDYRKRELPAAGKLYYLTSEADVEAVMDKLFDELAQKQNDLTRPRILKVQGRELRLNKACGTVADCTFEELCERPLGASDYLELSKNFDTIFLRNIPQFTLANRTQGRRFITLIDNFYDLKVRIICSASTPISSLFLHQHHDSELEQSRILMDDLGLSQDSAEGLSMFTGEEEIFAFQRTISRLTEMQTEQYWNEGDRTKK
UniProt Q6ZN18: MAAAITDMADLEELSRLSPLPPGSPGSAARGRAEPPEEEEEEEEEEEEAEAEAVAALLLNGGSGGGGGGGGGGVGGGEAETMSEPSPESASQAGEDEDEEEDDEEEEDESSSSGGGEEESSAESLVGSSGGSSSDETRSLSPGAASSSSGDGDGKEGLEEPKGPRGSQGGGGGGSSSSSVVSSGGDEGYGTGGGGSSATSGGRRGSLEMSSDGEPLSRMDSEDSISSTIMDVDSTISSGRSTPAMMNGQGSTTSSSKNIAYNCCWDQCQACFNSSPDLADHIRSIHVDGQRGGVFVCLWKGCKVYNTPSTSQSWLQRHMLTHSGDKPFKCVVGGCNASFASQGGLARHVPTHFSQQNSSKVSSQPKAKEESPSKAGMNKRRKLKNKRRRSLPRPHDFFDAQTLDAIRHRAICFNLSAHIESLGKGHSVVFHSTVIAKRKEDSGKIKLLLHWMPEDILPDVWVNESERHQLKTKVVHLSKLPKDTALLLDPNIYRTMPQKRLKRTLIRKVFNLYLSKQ
UniProt Q86V24: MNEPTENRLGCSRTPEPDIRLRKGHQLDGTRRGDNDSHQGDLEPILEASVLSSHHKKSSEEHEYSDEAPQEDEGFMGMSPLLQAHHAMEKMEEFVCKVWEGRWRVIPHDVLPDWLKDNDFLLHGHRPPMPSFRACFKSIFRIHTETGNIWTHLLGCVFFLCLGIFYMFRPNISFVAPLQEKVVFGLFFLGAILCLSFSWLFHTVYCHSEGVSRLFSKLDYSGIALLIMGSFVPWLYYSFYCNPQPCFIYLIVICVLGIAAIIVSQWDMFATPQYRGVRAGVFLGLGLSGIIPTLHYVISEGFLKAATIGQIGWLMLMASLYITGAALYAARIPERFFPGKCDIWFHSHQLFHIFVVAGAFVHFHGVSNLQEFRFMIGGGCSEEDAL
UniProt Q8TED9: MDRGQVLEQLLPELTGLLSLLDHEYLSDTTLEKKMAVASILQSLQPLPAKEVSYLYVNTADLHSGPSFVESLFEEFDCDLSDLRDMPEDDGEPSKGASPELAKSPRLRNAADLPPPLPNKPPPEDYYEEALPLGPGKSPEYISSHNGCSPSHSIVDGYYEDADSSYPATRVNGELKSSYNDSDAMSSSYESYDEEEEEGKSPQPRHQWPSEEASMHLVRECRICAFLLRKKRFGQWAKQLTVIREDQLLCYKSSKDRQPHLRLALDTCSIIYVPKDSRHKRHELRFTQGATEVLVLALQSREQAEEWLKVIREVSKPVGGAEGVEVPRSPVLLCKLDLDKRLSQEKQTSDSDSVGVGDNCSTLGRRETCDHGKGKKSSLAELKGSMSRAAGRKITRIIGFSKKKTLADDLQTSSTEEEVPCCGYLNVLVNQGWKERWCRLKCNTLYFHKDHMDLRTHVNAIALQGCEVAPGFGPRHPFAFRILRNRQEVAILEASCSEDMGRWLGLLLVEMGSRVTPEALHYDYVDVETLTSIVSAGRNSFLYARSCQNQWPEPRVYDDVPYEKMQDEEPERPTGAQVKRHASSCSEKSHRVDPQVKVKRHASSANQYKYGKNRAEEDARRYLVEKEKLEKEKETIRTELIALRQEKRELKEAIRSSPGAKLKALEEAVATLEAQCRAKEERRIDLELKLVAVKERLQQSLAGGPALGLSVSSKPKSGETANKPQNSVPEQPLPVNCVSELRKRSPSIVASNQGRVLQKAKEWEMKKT
UniProt P13686: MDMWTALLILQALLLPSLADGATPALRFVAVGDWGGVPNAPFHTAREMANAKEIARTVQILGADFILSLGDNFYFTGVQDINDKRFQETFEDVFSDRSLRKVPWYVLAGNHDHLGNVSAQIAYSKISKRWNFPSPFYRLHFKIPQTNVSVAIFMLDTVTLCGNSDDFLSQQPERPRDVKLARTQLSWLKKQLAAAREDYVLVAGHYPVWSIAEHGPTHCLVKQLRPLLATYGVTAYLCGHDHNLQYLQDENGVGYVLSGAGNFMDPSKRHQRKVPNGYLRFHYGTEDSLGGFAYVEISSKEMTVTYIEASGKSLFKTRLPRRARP
UniProt Q13155: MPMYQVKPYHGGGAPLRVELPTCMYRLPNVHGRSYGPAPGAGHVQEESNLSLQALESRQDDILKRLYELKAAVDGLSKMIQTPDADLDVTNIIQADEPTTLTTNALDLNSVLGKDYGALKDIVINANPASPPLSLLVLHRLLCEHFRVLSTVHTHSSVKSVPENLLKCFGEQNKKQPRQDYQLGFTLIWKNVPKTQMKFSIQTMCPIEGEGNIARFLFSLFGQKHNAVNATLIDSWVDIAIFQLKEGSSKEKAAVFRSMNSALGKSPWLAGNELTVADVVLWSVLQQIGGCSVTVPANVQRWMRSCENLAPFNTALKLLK
UniProt Q04771: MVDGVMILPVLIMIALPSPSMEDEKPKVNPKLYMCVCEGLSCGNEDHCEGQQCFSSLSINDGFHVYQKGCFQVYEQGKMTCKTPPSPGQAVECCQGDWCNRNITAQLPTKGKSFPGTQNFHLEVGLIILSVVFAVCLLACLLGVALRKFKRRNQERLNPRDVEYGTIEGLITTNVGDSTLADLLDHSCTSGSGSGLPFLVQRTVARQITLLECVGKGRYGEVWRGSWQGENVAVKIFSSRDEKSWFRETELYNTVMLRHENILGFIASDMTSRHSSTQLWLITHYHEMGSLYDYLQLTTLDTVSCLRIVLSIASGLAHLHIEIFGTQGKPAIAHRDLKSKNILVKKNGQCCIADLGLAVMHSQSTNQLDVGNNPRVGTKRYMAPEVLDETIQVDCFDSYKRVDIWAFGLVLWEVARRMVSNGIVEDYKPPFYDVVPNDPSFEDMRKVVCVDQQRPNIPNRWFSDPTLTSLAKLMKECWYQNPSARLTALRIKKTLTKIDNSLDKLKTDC
UniProt Q96M93: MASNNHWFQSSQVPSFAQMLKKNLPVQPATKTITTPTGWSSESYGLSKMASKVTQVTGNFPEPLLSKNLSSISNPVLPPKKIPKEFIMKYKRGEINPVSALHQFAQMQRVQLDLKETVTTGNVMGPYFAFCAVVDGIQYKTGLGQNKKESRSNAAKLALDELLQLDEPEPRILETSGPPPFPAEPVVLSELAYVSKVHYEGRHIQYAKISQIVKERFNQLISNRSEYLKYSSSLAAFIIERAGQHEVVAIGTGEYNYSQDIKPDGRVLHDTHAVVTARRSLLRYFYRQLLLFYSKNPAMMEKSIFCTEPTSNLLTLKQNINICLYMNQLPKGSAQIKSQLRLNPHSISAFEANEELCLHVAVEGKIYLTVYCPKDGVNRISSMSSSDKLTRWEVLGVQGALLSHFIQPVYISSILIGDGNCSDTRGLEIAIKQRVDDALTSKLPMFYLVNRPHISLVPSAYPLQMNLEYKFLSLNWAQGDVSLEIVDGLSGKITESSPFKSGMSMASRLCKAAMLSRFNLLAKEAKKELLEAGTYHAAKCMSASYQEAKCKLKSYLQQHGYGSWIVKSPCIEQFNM

What was measured:
Assay in all cases: log2 fold change, soluble protein after heating vs DMSO (PISA); higher = thermal stabilisation; K562 lysate, 10 uM; active = over 0.2 and 3.5 SD of the protein, either way, in both replicates (recomputed)
alvocidib = compound: CN1CC[C@H](c2c(O)cc(O)c3c(=O)cc(-c4ccccc4Cl)oc23)[C@H](O)C1 [alvocidib]
Procedure, shortened: (§1)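 Log-two fold change in thermal stability relative to solvent controls is reported from duplicates. For each sample, crude K562 extract from dounce-homogenised pellets in PBS pH 7.4 with 1 mM MgCl2, at 1 mg/mL protein, was treated with 10 μM compound for 30 min. Aliquots heated for 3 min across 48°C-58°C were pooled, brought to 0.5% NP-40 at 4°C and cleared at 21,000xg for 90 min. The supernatant was quantified by TMTpro 16plex LC-MS/MS with channel sums equalised.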

Tubastatin A = compound: CN1CCc2c(c3ccccc3n2Cc2ccc(C(=O)NO)cc2)C1 [Tubastatin A]
Procedure, shortened: as §1

[1] = compound: CNC(=O)C1=CC=CC=C1NC2=NC(=NC=C2Cl)NC3=C(C=C(C=C3)N4CCOCC4)OC
Procedure, shortened: as §1

defactinib = compound: CNC(=O)c1ccc(Nc2ncc(C(F)(F)F)c(NCc3nccnc3N(C)S(C)(=O)=O)n2)cc1 [defactinib]
Procedure, shortened: as §1

encorafenib = compound: COC(=O)N[C@@H](C)CNc1nccc(-c2cn(C(C)C)nc2-c2cc(Cl)cc(NS(C)(=O)=O)c2F)n1 [encorafenib]
Procedure, shortened: as §1

[2] = compound: COC(=O)[C@H](CCSC)NC(=O)C1=C(C=C(C=C1)NC[C@H](CS)N)C2=CC=CC=C2
Procedure, shortened: as §1

alisertib = compound: COc1cc(Nc2ncc3c(n2)-c2ccc(Cl)cc2C(c2c(F)cccc2OC)=NC3)ccc1C(=O)O [alisertib]
Procedure, shortened: as §1

gefitinib = compound: COc1cc2ncnc(Nc3ccc(F)c(Cl)c3)c2cc1OCCCN1CCOCC1 [gefitinib]
Procedure, shortened: as §1

[3] = compound: CNc1nc(-c2ccc3c(N)n[nH]c3c2)cc(N2C[C@@H](C(=O)NC3CCCCC3)CC[C@H]2C)n1
Procedure, shortened: as §1

[4] = compound: COc1cc2nc(-c3cc(F)ccc3O)nc(N[C@@H]3CNC[C@H]3C(C)(C)O)c2cc1OC
Procedure, shortened: as §1

Target | log2 fold change (alvocidib) | log2 fold change (Tubastatin A) | log2 fold change [1] | log2 fold change (defactinib) | log2 fold change (encorafenib) | log2 fold change [2] | log2 fold change (alisertib) | log2 fold change (gefitinib) | log2 fold change [3] | log2 fold change [4]
AGPAT2 (UniProt O15120) | inactive: -0.008 | inactive: 0.01 | inactive: 0.091 | inactive: -0.104 | inactive: 0.054 | inactive: -0.043 | inactive: 0.009 | inactive: 0.052 |  | 
ADAMTSL4 isoform 3 (UniProt Q6UY14) | inactive: 0.054 | inactive: -0.002 | inactive: -0.012 |  |  |  | inactive: -0.034 | inactive: 0.06 | inactive: 0.297 | inactive: -0.013
ACSL3 (UniProt O95573) | inactive: -0.01 | inactive: -0.013 | inactive: 0.001 | inactive: -0.001 | inactive: 0.023 | inactive: -0.054 | inactive: 0.022 | inactive: -0.014 | inactive: 0.021 | inactive: 0.038
ACSS1 (UniProt Q9NUB1) | inactive: -0.01 | inactive: 0.018 |  |  | inactive: -0.009 | inactive: 0.013 | inactive: -0.05 | inactive: -0.116 | inactive: 0.073 | inactive: 0.066
ADD2 (UniProt P35612) | inactive: -0.001 | inactive: 0.031 | inactive: 0.004 | inactive: -0.008 | inactive: -0.02 | inactive: -0.026 | inactive: -0.015 | inactive: 0.01 | inactive: 0.008 | inactive: 0.011
AIF1L (UniProt Q9BQI0) | inactive: 0.083 | inactive: -0.009 | inactive: 0.073 |  | inactive: 0.06 | active: -0.401 | inactive: 0.095 | inactive: 0.035 | inactive: 0.164 | inactive: 0.001
ADAM15 (UniProt Q13444) | inactive: 0 | inactive: -0.026 | inactive: 0.069 |  |  |  |  |  | inactive: 0.004 | inactive: 0.054
AFMID isoform 2 (UniProt Q63HM1) | inactive: 0.072 | inactive: 0.359 |  | inactive: -0.045 | inactive: 0.024 | inactive: 0.108 |  |  |  | 
ADPRHL2 (UniProt Q9NX46) | inactive: 0.005 | inactive: 0.071 | inactive: 0.025 | inactive: -0.016 | inactive: -0.051 | inactive: 0.017 | inactive: 0.046 | inactive: 0.005 | inactive: 0.05 | inactive: 0.005
ACSL6 isoform 1 (UniProt Q9UKU0) | inactive: 0.099 | inactive: -0.24 | inactive: -0.049 |  |  |  |  |  |  | inactive: -0.125
ACSL5 isoform 3 (UniProt Q9ULC5) | inactive: 0.127 | inactive: -0.153 | inactive: -0.104 |  |  |  | inactive: 0.045 | inactive: -0.013 | inactive: 0.078 | inactive: -0.033
AKR7L (UniProt Q8NHP1) |  |  |  |  |  |  | inactive: -0.08 | inactive: -0.116 | inactive: 0.071 | inactive: -0.012
AKR1B10 (UniProt O60218) |  | inactive: -0.006 |  |  |  |  |  |  | inactive: -0.116 | 
AGA (UniProt P20933) |  | inactive: -0.1 | inactive: -0.136 | inactive: -0.102 | inactive: 0.099 | inactive: -0.11 |  |  |  | inactive: 0.011
AHSP (UniProt Q9NZD4) | inactive: 0.29 |  |  | inactive: 0.065 | inactive: -0.003 | inactive: -0.006 | inactive: 0.015 | inactive: -0.163 |  | inactive: -0.087
ACTN4 (UniProt H7C144) |  | inactive: -0.014 |  |  |  |  |  |  | inactive: -0.111 | 
AFDN (UniProt A8MQ02) |  |  |  | inactive: -0.054 |  |  |  |  |  | inactive: 0.095
AK5 (UniProt Q9Y6K8) |  | inactive: -0.018 | inactive: 0.067 | inactive: -0.014 | inactive: -0.002 | inactive: -0.055 | inactive: 0.024 | inactive: 0.019 | inactive: 0.079 | inactive: -0.025
AFG1L (UniProt Q8WV93) |  | inactive: -0.112 | inactive: -0.02 |  | inactive: -0.274 | inactive: 0.154 | inactive: -0.01 | inactive: 0.073 | inactive: 0.015 | inactive: 0.026
ACTG1 (UniProt K7EM38) |  |  |  |  | inactive: -0.286 | inactive: 0.142 |  |  |  | inactive: 0.099
AKAP17A (UniProt Q02040) |  | inactive: -0.103 | inactive: -0.066 |  |  |  |  |  | inactive: 0.186 | inactive: -0.107
ADCY7 (UniProt P51828) |  |  | inactive: 0.196 |  |  |  | inactive: 0.002 | inactive: -0.053 | inactive: -0.06 | 

Some of the entries so far, in markdown.

| Target | log2 fold change (alvocidib) | log2 fold change (Tubastatin A) | log2 fold change [1] | log2 fold change (defactinib) | log2 fold change (encorafenib) | log2 fold change [2] | log2 fold change (alisertib) | log2 fold change (gefitinib) | log2 fold change [3] | log2 fold change [4] |
| --- | --- | --- | --- | --- | --- | --- | --- | --- | --- | --- |
| ADAMTSL4 isoform 3 (UniProt Q6UY14) | inactive: 0.054 | inactive: -0.002 | inactive: -0.012 |  |  |  | inactive: -0.034 | inactive: 0.06 | inactive: 0.297 | inactive: -0.013 |
| ACSL3 (UniProt O95573) | inactive: -0.01 | inactive: -0.013 | inactive: 0.001 | inactive: -0.001 | inactive: 0.023 | inactive: -0.054 | inactive: 0.022 | inactive: -0.014 | inactive: 0.021 | inactive: 0.038 |
| ACSS1 (UniProt Q9NUB1) | inactive: -0.01 | inactive: 0.018 |  |  | inactive: -0.009 | inactive: 0.013 | inactive: -0.05 | inactive: -0.116 | inactive: 0.073 | inactive: 0.066 |
| ADD2 (UniProt P35612) | inactive: -0.001 | inactive: 0.031 | inactive: 0.004 | inactive: -0.008 | inactive: -0.02 | inactive: -0.026 | inactive: -0.015 | inactive: 0.01 | inactive: 0.008 | inactive: 0.011 |
| AIF1L (UniProt Q9BQI0) | inactive: 0.083 | inactive: -0.009 | inactive: 0.073 |  | inactive: 0.06 | active: -0.401 | inactive: 0.095 | inactive: 0.035 | inactive: 0.164 | inactive: 0.001 |
| ADAM15 (UniProt Q13444) | inactive: 0 | inactive: -0.026 | inactive: 0.069 |  |  |  |  |  | inactive: 0.004 | inactive: 0.054 |
| AFMID isoform 2 (UniProt Q63HM1) | inactive: 0.072 | inactive: 0.359 |  | inactive: -0.045 | inactive: 0.024 | inactive: 0.108 |  |  |  |  |
| ADPRHL2 (UniProt Q9NX46) | inactive: 0.005 | inactive: 0.071 | inactive: 0.025 | inactive: -0.016 | inactive: -0.051 | inactive: 0.017 | inactive: 0.046 | inactive: 0.005 | inactive: 0.05 | inactive: 0.005 |
| ACSL6 isoform 1 (UniProt Q9UKU0) | inactive: 0.099 | inactive: -0.24 | inactive: -0.049 |  |  |  |  |  |  | inactive: -0.125 |

Additional records follow.

Target | log2 fold change (alvocidib) | log2 fold change (Tubastatin A) | log2 fold change [1] | log2 fold change (defactinib) | log2 fold change (encorafenib) | log2 fold change [2] | log2 fold change (alisertib) | log2 fold change (gefitinib) | log2 fold change [3] | log2 fold change [4]
AHI1 (UniProt Q8N157) |  |  | inactive: 0.198 | inactive: -0.067 | inactive: -0.049 | inactive: 0.053 |  |  |  | 
ACOX3 (UniProt O15254) |  |  |  |  | inactive: -0.061 | inactive: 0.113 |  |  | inactive: 0.021 | 
ADCY3 (UniProt O60266) |  | inactive: -0.03 | inactive: -0.01 |  |  |  |  |  | inactive: -0.067 | 
ADCK5 (UniProt Q3MIX3) |  |  |  |  | inactive: 0.047 | inactive: 0.114 | inactive: -0.062 | inactive: -0.051 | inactive: 0.127 | inactive: 0.022
AEBP2 (UniProt Q6ZN18) |  | inactive: -0.074 | inactive: -0.038 |  |  |  |  |  | inactive: 0.073 | inactive: 0.017
ADK, A0A5F9ZH76 |  |  |  |  |  |  | inactive: 0.008 | inactive: 0.072 |  | inactive: -0.063
ADIPOR2 (UniProt Q86V24) |  | inactive: -0.145 | inactive: 0.057 | inactive: 0.115 | inactive: 0.001 | inactive: -0.212 | inactive: -0.003 | inactive: -0.091 | inactive: 0.065 | inactive: -0.058
ACTR8 (UniProt Q9H981) |  | inactive: -0.346 | inactive: 0.087 |  | inactive: -0.238 | inactive: 0.239 | inactive: 0.066 | inactive: 0.295 | inactive: 0.007 | inactive: -0.002
ACVR2B (UniProt Q13705) |  |  | inactive: 0.068 | inactive: -0.069 |  |  |  |  |  | 
ADCK1 (UniProt Q86TW2) | inactive: 0.053 |  |  | inactive: -0.089 | inactive: -0.432 | inactive: 0.041 |  |  |  | 
AFAP1L1 (UniProt Q8TED9) |  |  | inactive: -0.013 |  | inactive: 0.09 | inactive: 0.053 |  |  | inactive: 0.283 | inactive: 0.164
ACTB (UniProt C9JUM1) |  |  |  |  |  |  | inactive: -0.057 | inactive: -0.294 |  | inactive: 0.05
AKAP10 (UniProt O43572) |  | inactive: -0.3 | inactive: -0.055 |  | inactive: 0.058 | inactive: -0.047 | inactive: -0.074 | inactive: 0.429 | inactive: -0.143 | inactive: -0.072
AGTRAP isoform 2 (UniProt Q6RW13) | inactive: -0.104 |  |  |  |  |  |  |  |  | inactive: -0.054
ACP5 (UniProt P13686) |  |  | inactive: -0.487 |  |  |  |  |  |  | 
AGO2 (UniProt E5RJY2) | inactive: -0.147 |  |  |  |  |  | inactive: 0.081 | inactive: -0.191 |  | inactive: -0.005
AIMP2 isoform 2 (UniProt Q13155) |  | inactive: -0.038 |  |  |  |  |  |  |  | inactive: 0.115
ACTB, A0A2R8YEA7 | inactive: 0.156 |  |  | inactive: 0.04 |  |  | inactive: 0 | inactive: 0.027 |  | inactive: 0.044
ACVR1 (UniProt Q04771) | inactive: 0.086 |  |  |  |  |  | inactive: 0.069 | inactive: 0.158 | inactive: -0.056 | 
ADAD1 (UniProt Q96M93) |  | inactive: 0.072 |  | inactive: -0.06 | inactive: 0.041 | inactive: -0.077 |  |  | inactive: -0.153 | inactive: -0.02
AJUBA (UniProt Q96IF1) |  |  |  |  |  |  |  |  | inactive: 0.065 | 
AGFG2 (UniProt O95081) |  | inactive: -0.108 | inactive: -0.062 | inactive: 0.119 | inactive: -0.024 | inactive: 0 |  |  | inactive: -0.029 | inactive: 0.127
